In all, about 52,000 sequences went through this assay and about 210 (0.4%) were called active.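 How the source made its calls: active means gene whose silencing raises cell survival under the drug, median off-target-corrected z-score across its silencing RNAs 2 or more; inactive means the rest.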 The list shows a part of the results.
experiment: Resistance to Poly (ADP-Ribose) Polymerase inhibitor: Gene Identification via Genome-wide siRNA Screen; settings: mouse BRCA2 R2336H ES cells, olaparib, CellTiter-Glo viability; active compounds read high
Outline: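 Genome-wide siRNA screen (3 siRNAs/gene, 20 nM) in mouse ES cells carrying hypomorphic BRCA2 R2336H; olaparib 500 nM added 48 h post-transfection, CellTiter-Glo viability 72 h later. Normalized to plate-median negative control; MAD z-scores, gene median, seed-adjusted.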

Sequence	z-score
CCCUUAGUUUGACACACUUTT against Tal2	inactive: 0.519
GGAAACUGGACAAGUCUUCTT against E130307M08Rik	inactive: -2.31
GGGAACUGUUCCAUCUUGCTT against Olfr606	inactive: 0.806
GGGAAUUCCUUUAUUGAUCTT against Dhrs9	inactive: 1.96
GCUUUGGUAGAUCCUAAUATT against Ms4a7	inactive: 1.02
GGCUUGAUCAUGACUUAAATT against Armc8	inactive: 1.32
GGAGGAAUUUGAGAAGAAUTT against Lasp1	inactive: -0.939
GGAACCAAUAAAUCUGUGCTT against Rfxank	inactive: 0.27
GGUAUGCAAGUGGAAUCUGTT against 1300018J18Rik	inactive: -1.29
GGAGGAAGAUGAGUUCUACTT against Tcfl1	inactive: -0.34
GCUGGCAACGUGCUUAUGATT against Stk10	inactive: -0.919
CCUACUUGAUAUUUUUGGUTT against AU022870	inactive: 0.941
GGAACUUUGCUUUGAUGAUTT against Myo9b	inactive: 0.233
GGACAUAGUCUGAGGCAAGTT against 2310016E02Rik	inactive: -2.77
CCAUUAAAUGCUGUUGUACTT against Dctn2	inactive: -0.036
GGAGAGUUUUCCAGAAUAUTT against Olfr148	inactive: -0.732
GGGCCCAUUUUCAGAAAUGTT against Tagln3	inactive: 0.0108
GGGUUUUUGUGUACAAUGATT against 4932418K24Rik	inactive: -1.21
CGGACAUGACAAAACUAGATT against Eef1b2	inactive: 0.132
GGAGAGCUAUGUGGUGCUUTT against Wdr4	inactive: 3.83
GGACCUUAAGAAAACAAUGTT against Birc4	inactive: 1.1
GGCUGAUGUGGAAGGGAUGTT against Leftb	inactive: -1.95
GGAUUUGUGAAGCAGAUAATT against Tde1	inactive: -1.64
GGAAAAUCUAGAAGACAAUTT against Rwdd1	inactive: -0.564
GCUCAGAGCAUGUUGGUGGTT against Ripk5	inactive: -0.966
GGAAAUGCCCACUAAAUUUTT against Rpl7l1	inactive: -0.698

Sequence	z-score
GGGUGUAUGAUCCAGUUAUTT against Olfr913	inactive: -1.72
GGUCUAUGUCCAAAAAGAATT against Als2cr13	inactive: 0.437
GCGAACCUGCUCACCCUUUTT against Tfcp2l4	inactive: -0.55
GGAACUUGACAUUGACAUATT against Klrb1d	inactive: 0.741
GCUCUCAGCAUCUUCUAUUTT against Tas2r124	inactive: -0.181
GGUUGACCCUGGAAUCUCUTT against 1110011D13Rik	inactive: -2.29
GGAGAAGAUGGAGAAGACCTT against Ptrf	inactive: 0.726
GCAAACGGACACUUGGAAUTT against Hmx1	inactive: 0.265
GGCUUUACGAGGAAAAAGGTT against Pex1	inactive: -0.166
GCAGCUGGCUGCUUUCACATT against AV028368	inactive: -0.955
GCACCAUUUGAGUUUUUCUTT against V1rc32	inactive: 0.64
GGAUGACUAAAAUGUUAAGTT against Slc20a2	inactive: 2.26
GGUCAGGUGGCUCAAGAAGTT against Plod3	inactive: 2.73
GGUAUAUCUGAGUUUCUACTT against Sgcz	inactive: -0.312
GGAAGCUCUAAAAAGAGUGTT against Olfr23	inactive: 0.234
GCAAAUUUUGUACCAGGCCTT against Tcf2	inactive: 0.583
GGCCAAAGACUUUUGGAAUTT against Rgs1	inactive: -0.0471
GCGGUAUGGGAAGCUAAAGTT against Rhbdf1	inactive: 1.16
GGUAUUGACAGGGAUCUGATT against Limk1	inactive: -0.413
GCAUGACUCUCAGGUCAAGTT against Lman2	inactive: -0.311
CCUGCUACCAGAUGAACCATT against Man1b1	inactive: -1.54
GGACACAAUACCACUGACCTT against 2310009E07Rik	inactive: 0.167
GGCGACACAUUAAAAUAGUTT against Mepe	inactive: 1.87
GGUUACCAUGAAGGCUGGATT against Bpil3	inactive: -2.49
GGUUAUGAAACUUGGAAAUTT against Cdkn2c	inactive: -0.00137
GGAGACACCCGAAAUACAUTT against Adam18	inactive: 0.694

Sequence	z-score
GGCCAUGACAUCACAGAACTT against Eif3s5	inactive: -3.17
GGAAACCAGAAAGAUCAUGTT against Phkg1	inactive: -0.061
GGCUCAAGAGAAAAGAAGGTT against 8030411F24Rik	inactive: 1.33
GGAAGGGUUUGUUUGUUUATT against Nkiras1	inactive: 0.368
GCCAAAGACGAUUAUCGAATT against Hook3	inactive: -0.151
CCCUCUUCUGUAUGCAUCGTT against Olfr262	inactive: 0.362
GGCUACAUGAGAAGCACAGTT against Disc1	inactive: -1.91
GGGACACCCUUUGAAGAUGTT against Ube2b	inactive: 2.75
GGUGGACAUCUUGGACAUUTT against Amn	inactive: 0.00406
GGACAAUGUGGUAGUGGACTT against 1110012M11Rik	inactive: -0.946
GGAGAUUGACAUCCUGCCUTT against Pdk4	inactive: 0.332
GGAGACCUGAUUCCAGGCATT against Zfa	inactive: -1.13
GGUGCUCCACAACACCUAUTT against 2510039O18Rik	inactive: 2.34
GGAAGAAUGCCACAAGGGATT against Irx6	inactive: 0.32
GGAAGAUGAUGAUAAUGAGTT against Cdv3	inactive: -0.243
CGAGGAUACGUUUGCAUCUTT against 2310044G17Rik	inactive: 0.172
GGUAACAAACUACAUUUGCTT against Pcdhb16	inactive: 1.26
GCUGUUCCUCUUUCUUUCUTT against Olfr522	inactive: -0.0794
GGGAUUGGGUAUUUUUUAGTT against B4galt1	inactive: 0.972
CCAUAUCCAAUAAUAGAGATT against Trip12	inactive: 0.89
GACCAAAGCACUGACUAUGTT against Lyzs	inactive: -0.0887
GGAAUUAAGGUAGAGGUUATT against Ms4a11	inactive: -1.31
GGUUUCAAGACAUUGAAAGTT against 2700007P21Rik	inactive: -0.25
GGAGGACUUUCAGUUAUAUTT against 1110031I02Rik	inactive: 0.438
GCAGUUAUCAAUAAUUCCCTT against AK129375	inactive: -1.51
GCAUCCUCAUCAUUCCAAATT against Cd226	inactive: -0.217

Sequence	z-score
CGAAACCAAUCUAAAGAAGTT against Aco2	inactive: -2.06
GCUGACCAUUUCCACCAGATT against Galgt2	inactive: -1.13
GGACUUGAGAAAAAUGUUATT against Odag	inactive: -0.385
GGUGGUAUUGUUGGCUUUATT against Olfr1297	inactive: -0.466
CGGGAUCCUGUUUCAAGCUTT against Abr	inactive: 0.158
GGAUUUUUGAUGAUGUGUCTT against Arfgap1	inactive: 1.9
GGAAACAGAACAGAUAUUUTT against 5430439G14Rik	inactive: -1.25
CCGUGUGAGAUAUGAAGAATT against LOC381062	inactive: -0.461
GGCUCUGAAUCAGAAGAGUTT against Adamtsl2	inactive: -0.847
GGAAUGUGUGGGUUUUCCUTT against Tmem14c	inactive: -0.908
CUUUUUCUUGCUCUUUGGATT against MOR135-11	inactive: 0.215
GGAAAAAGCACCAUUGUGATT against Gnao1	inactive: -0.458
GCCACAUCAGAUGAAGUCCTT against B930008A12Rik	inactive: 2.2
GCAGAGGAACAAGGCAUGUTT against Olfr345	inactive: 0.0798
GCAUCCACCUCAACGAUAUTT against Dlgh3	inactive: -0.965
CACCUCUGGUGAAAGCUAATT against Bola1	inactive: 0.559
GCAGCAUUGAUAAAUGGUCTT against Rab3c	inactive: 0.0206
CGGAAGUAAAAAGAACUACTT against Olfr1321	inactive: 0.727
GGACGGCCUGUUUGUUAUATT against Olfr1346	inactive: -0.159
GGCACUGGGCAAACAUUAATT against Ptprcap	inactive: -1.77
GCGUGCUUCUGUUUACCAUTT against Hnrpl	inactive: -0.0284
GGGCAACACCAUGGAGAUCTT against Crybb1	inactive: 0.313
GGAGACAUGUUCCACAGGCTT against Ngfr	inactive: -0.0103
CGAGUGGAAAGAUUUAUAGTT against Ubxd4	inactive: -0.419
ACUCCUUCCGAGUUGUUGGTT against Vasp	inactive: 0.613
AAUCUAUUAGGUUAGAGGATT against 9630041A04Rik	inactive: 1.63

A run of entries taken from the entries so far, for reference:
Sequence	z-score
CGGGAUCCUGUUUCAAGCUTT against Abr	inactive: 0.158
GGAUUUUUGAUGAUGUGUCTT against Arfgap1	inactive: 1.9
GGAAACAGAACAGAUAUUUTT against 5430439G14Rik	inactive: -1.25
CCGUGUGAGAUAUGAAGAATT against LOC381062	inactive: -0.461

Reference: PubChem BioAssay AID1347423 (Functional Genomics Laboratory (NCATS/FGL), 2020)
